# In the supplement of paper PMC10849652:
# Chains of the proteins cited; added tags and fusions are not shown. Lines headed by an entry give the natural chain unless they say otherwise; changes in a name come on top.
# UniProt Q9Y6M1: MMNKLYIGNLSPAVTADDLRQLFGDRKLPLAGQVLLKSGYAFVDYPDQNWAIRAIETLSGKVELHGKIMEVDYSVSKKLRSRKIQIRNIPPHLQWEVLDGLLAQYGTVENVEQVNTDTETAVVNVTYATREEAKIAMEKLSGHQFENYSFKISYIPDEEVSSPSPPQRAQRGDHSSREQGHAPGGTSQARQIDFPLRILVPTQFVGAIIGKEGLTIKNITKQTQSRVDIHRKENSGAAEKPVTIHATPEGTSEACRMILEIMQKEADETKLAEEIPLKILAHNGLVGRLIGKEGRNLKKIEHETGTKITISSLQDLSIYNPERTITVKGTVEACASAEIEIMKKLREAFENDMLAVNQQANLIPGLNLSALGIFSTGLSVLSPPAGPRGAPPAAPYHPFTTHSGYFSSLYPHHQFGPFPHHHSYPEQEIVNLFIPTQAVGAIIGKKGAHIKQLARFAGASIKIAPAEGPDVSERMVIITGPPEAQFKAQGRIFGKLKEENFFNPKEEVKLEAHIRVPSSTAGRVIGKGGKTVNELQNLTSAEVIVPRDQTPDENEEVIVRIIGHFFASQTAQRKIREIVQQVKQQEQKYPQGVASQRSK
# UniProt Q7Z6Z7, whole entry, looked up: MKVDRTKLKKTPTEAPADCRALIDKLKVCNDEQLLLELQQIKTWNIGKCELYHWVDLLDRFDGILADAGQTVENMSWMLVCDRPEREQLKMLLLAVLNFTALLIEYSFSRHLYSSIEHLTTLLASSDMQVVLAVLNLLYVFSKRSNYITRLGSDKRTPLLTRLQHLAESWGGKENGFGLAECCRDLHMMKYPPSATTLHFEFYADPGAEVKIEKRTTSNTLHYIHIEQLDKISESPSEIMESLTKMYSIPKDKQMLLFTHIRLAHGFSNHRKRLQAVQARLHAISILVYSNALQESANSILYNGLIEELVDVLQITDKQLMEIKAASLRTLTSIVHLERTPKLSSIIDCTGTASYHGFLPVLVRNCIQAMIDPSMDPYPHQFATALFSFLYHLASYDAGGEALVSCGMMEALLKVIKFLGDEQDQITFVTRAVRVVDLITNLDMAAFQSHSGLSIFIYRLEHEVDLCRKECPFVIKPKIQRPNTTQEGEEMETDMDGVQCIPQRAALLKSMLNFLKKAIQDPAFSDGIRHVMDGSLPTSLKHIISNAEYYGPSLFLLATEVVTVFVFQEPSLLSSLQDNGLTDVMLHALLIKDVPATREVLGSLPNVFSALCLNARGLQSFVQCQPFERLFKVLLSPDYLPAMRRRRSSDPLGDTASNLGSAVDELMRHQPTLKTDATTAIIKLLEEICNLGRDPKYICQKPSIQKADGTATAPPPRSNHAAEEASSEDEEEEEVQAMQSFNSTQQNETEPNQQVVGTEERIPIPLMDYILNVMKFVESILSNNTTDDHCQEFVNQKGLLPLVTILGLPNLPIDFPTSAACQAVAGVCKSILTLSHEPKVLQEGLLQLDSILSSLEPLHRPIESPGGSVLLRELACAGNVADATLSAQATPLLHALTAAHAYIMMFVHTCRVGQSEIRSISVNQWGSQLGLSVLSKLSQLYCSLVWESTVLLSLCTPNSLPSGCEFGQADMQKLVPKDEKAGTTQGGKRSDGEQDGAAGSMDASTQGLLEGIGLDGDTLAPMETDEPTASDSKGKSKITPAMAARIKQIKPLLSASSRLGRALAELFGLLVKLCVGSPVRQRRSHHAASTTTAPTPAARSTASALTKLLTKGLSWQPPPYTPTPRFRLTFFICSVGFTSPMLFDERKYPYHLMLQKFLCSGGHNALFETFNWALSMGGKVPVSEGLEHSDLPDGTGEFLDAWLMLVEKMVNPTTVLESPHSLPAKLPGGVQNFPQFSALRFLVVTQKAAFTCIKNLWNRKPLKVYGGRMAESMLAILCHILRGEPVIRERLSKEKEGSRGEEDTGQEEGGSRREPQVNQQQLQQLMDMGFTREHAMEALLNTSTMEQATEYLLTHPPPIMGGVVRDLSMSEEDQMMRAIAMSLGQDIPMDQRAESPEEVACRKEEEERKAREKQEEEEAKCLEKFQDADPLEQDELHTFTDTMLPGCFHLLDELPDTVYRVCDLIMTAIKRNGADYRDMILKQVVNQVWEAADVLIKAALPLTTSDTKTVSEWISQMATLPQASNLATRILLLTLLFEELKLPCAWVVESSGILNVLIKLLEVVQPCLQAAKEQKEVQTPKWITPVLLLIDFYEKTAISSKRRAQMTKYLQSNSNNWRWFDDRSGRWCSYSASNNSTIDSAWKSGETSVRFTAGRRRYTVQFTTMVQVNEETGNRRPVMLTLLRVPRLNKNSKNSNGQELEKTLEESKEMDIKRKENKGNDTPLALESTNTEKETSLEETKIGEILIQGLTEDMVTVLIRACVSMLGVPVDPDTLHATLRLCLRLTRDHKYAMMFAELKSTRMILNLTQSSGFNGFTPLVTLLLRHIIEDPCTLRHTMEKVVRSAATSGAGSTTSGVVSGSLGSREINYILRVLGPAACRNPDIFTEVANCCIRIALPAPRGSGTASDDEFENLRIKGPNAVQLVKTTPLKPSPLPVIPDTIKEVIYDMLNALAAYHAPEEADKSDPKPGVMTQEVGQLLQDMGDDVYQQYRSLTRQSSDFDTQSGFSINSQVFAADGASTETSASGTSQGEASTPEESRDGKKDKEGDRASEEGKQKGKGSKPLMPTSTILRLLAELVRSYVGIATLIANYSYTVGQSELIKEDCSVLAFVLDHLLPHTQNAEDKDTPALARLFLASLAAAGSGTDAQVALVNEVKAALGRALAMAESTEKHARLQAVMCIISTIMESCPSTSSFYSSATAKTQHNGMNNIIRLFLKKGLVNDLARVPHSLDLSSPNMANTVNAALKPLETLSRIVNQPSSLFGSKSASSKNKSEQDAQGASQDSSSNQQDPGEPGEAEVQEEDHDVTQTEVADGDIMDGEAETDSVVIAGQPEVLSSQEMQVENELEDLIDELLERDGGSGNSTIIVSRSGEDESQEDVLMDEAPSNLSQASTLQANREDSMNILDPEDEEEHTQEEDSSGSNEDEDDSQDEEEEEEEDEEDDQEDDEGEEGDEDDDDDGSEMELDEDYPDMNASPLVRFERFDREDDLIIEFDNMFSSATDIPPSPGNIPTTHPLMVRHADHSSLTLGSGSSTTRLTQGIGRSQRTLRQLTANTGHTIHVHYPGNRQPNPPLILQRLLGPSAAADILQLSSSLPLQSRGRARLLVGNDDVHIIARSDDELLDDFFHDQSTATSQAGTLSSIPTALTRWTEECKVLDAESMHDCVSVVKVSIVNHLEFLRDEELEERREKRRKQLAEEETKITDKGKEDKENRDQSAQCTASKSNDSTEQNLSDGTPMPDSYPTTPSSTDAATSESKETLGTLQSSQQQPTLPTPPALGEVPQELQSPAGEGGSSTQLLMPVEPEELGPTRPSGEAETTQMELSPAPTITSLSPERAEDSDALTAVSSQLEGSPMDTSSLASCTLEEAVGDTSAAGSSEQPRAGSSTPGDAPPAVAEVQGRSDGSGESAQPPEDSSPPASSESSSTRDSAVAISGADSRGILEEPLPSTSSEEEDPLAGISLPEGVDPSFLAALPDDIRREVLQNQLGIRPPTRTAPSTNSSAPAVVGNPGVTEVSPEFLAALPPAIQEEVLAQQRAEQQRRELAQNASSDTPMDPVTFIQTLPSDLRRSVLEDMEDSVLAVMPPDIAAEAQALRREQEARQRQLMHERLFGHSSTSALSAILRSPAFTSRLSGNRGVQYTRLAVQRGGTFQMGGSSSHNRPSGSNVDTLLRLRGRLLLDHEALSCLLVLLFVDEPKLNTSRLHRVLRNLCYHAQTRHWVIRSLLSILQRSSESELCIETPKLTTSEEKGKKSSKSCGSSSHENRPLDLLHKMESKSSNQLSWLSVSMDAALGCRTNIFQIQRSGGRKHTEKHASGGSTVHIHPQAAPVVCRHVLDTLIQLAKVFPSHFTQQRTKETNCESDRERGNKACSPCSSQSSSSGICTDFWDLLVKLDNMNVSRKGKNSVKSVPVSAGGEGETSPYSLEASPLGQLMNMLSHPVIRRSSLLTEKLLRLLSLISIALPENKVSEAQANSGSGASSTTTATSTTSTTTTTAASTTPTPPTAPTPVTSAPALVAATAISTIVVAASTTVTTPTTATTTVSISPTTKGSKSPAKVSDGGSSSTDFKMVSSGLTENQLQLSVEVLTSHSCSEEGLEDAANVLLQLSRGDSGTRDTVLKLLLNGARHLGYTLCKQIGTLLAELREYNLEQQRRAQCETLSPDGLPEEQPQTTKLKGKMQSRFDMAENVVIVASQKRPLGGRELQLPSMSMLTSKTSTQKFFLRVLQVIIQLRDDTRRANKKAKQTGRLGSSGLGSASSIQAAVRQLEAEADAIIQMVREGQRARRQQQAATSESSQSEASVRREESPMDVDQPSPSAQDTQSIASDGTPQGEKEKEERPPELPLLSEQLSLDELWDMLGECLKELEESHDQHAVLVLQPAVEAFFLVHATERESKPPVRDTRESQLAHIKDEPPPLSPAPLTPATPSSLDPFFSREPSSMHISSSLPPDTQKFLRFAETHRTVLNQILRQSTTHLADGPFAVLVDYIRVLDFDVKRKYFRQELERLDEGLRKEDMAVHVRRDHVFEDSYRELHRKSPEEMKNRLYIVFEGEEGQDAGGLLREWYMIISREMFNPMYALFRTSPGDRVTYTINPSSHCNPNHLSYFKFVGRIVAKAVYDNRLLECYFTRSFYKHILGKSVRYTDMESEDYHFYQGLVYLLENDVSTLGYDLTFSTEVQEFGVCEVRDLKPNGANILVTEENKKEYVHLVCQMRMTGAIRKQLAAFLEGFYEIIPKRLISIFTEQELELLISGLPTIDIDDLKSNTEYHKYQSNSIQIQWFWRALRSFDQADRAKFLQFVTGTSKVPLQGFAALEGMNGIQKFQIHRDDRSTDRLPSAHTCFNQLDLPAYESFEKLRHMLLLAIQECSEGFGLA
# UniProt Q86VF2: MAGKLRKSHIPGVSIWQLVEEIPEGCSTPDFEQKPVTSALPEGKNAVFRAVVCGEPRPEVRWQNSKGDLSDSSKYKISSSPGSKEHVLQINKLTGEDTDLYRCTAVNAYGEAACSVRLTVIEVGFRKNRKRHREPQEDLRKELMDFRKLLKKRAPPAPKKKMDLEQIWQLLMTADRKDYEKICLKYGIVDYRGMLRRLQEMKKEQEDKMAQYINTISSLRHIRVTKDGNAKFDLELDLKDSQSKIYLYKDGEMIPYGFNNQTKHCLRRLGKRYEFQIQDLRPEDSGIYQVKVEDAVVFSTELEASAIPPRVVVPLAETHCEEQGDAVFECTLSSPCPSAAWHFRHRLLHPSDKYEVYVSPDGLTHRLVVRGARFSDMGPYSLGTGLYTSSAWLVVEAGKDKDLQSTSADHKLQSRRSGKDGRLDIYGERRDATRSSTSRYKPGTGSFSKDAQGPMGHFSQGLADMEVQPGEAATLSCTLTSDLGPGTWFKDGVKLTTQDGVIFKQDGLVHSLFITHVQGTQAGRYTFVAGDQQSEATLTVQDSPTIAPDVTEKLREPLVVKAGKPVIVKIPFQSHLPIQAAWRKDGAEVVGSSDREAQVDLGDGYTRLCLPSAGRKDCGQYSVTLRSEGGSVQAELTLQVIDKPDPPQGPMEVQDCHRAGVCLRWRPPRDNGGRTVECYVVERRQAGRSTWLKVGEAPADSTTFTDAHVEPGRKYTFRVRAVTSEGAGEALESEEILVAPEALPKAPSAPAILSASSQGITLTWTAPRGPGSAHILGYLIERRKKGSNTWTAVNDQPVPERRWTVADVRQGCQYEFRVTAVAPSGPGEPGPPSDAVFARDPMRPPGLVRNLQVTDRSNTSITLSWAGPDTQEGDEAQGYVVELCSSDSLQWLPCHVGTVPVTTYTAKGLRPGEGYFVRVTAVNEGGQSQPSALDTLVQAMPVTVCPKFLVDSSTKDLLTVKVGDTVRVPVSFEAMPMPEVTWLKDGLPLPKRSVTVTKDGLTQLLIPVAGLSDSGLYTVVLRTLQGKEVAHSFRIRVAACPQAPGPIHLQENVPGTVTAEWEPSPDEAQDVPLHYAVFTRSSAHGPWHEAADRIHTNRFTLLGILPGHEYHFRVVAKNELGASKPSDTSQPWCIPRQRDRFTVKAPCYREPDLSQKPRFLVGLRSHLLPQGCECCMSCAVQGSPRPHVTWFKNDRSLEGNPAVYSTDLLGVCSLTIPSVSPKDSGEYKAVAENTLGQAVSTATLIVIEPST
# UniProt Q96G21: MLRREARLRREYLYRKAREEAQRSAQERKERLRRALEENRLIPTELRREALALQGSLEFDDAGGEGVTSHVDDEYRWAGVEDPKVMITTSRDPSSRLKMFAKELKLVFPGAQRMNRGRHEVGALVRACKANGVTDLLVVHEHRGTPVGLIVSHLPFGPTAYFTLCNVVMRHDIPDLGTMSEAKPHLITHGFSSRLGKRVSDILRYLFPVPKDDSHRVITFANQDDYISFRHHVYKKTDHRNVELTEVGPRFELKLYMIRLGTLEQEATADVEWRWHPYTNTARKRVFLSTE
# This is one part of the list.
# Compound: CC1=CC=C(C=C1)SC2=C3C=C(SC3=CN=C2)C(=O)N
# Experiment: log2 fold change, soluble protein after heating vs DMSO (PISA); higher = thermal stabilisation; K562 lysate, 10 uM; active = over 0.2 and 3.5 SD of the protein, either way, in both replicates (recomputed)
# In short: (§1)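 K562 pellets were dounce-homogenised in PBS pH 7.4 containing 1 mM MgCl2, and the crude extract, at 1 mg/mL protein, was exposed to 10 μM compound for 30 min. Aliquots were heated for 3 min across 48°C-58°C, pooled, brought to 0.5% NP-40 at 4°C and spun at 21,000xg for 90 min, with the supernatant taken as soluble protein. TMTpro 16plex LC-MS/MS with equalised channel sums quantified that protein. Values are log-two fold changes in thermal stability relative to solvent controls, taken from duplicates.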
row,Target,log2 fold change
1,IGF2BP2 isoform 6 (UniProt Q9Y6M1),inactive: -0.016
2,INO80 (UniProt Q9ULG1),inactive: -0.152
3,HUWE1 isoform 2 (UniProt Q7Z6Z7),inactive: -0.442
4,IGFN1 isoform 5 (UniProt Q86VF2),inactive: 0.092
5,ILF3 (UniProt K7EKJ9),inactive: -0.04
6,IMP4 (UniProt Q96G21),inactive: 0.062

# Compound: CCCS(=O)(=O)Nc1ccc(F)c(C(=O)c2c[nH]c3ncc(-c4ccc(Cl)cc4)cc23)c1F [vemurafenib]
# Experiment: as above
# In short: as §1
row,Target,log2 fold change
1,IFT122 isoform 5 (UniProt Q9HBG6),inactive: 0.069
2,IFT172 (UniProt Q9UG01),inactive: 0.026
3,IGSF1 isoform 4 (UniProt Q8N6C5),inactive: -0.033

# Compound: CCCS(=O)(=O)Nc1ccc(F)c(C(=O)c2c[nH]c3ncc(Cl)cc23)c1F
# Experiment: as above
# In short: as §1
row,Target,log2 fold change
1,IGF2BP2 isoform 6 (UniProt Q9Y6M1),inactive: -0.003
2,INO80 (UniProt Q9ULG1),inactive: 0.231
3,HUWE1 isoform 2 (UniProt Q7Z6Z7),inactive: 0.159
4,IGFN1 isoform 5 (UniProt Q86VF2),inactive: 0.009
5,ILF3 (UniProt K7EKJ9),inactive: 0.089
6,IMP4 (UniProt Q96G21),inactive: 0.046

# Compound: CC[C@@H]1C(=O)N(C)c2cnc(Nc3ccc(C(=O)NC4CCN(C)CC4)cc3OC)nc2N1C1CCCC1
# Experiment: as above
# In short: as §1
row,Target,log2 fold change
1,IFIT3 (UniProt O14879),inactive: -0.228
2,HUWE1 isoform 2 (UniProt Q7Z6Z7),inactive: -0.201
3,ING2 (UniProt Q9H160),inactive: 0.082
4,IGSF1 isoform 4 (UniProt Q8N6C5),inactive: 0.067

# Compound: CC[C@@H]1C(=O)N(C)c2cnc(Nc3ccc(C(=O)N[C@H]4CC[C@H](N5CCN(CC6CC6)CC5)CC4)cc3OC)nc2N1C(C)C [volasertib]
# Experiment: as above
# In short: as §1
row,Target,log2 fold change
1,IGF2BP2 isoform 6 (UniProt Q9Y6M1),inactive: -0.153
2,INO80 (UniProt Q9ULG1),inactive: -0.02
3,HUWE1 isoform 2 (UniProt Q7Z6Z7),inactive: -0.231
4,IGFN1 isoform 5 (UniProt Q86VF2),inactive: 0.038
5,ILF3 (UniProt K7EKJ9),inactive: 0.011
6,IMP4 (UniProt Q96G21),inactive: -0.074

# Compound: CCn1c(C(=O)N(C2CC2)C2CC2)cc2c3c(ncn3C)c(Nc3cc(C)n(C)n3)nc21
# Experiment: as above
# In short: as §1
row,Target,log2 fold change
1,IFIT3 (UniProt O14879),inactive: 0.111
2,IGHA2 (UniProt P01877),inactive: 0.115
3,IFT122 isoform 5 (UniProt Q9HBG6),inactive: -0.096
4,IFT172 (UniProt Q9UG01),inactive: 0.392
5,"IGKV3D-7, A0A0C4DH55",inactive: 0.024
6,IFT88 (UniProt Q13099),inactive: 0.1
7,HUWE1 (UniProt H0Y659),inactive: -0.083
8,"IGHV3-72, A0A4W8ZXM2",inactive: 0.196
